From PMC7862700 come the findings set out here.

The list shows a part of the results, in another mix than the full data. At the low end of the ranking, values are background and their order means little.

This test concerns the target SPI1 (UniProt P17947). Kind of test: DAPPL (digital affinity profiling via proximity ligation, sequencing). The following applies: 10 mM Tris-HCl pH 7.5, 50 mM NaCl, 1 mM DTT, 4% glycerol, room temperature, 30 min; GST-TFs on glutathione beads, 16-mer random dsDNA library, 0.1% …; high values mean tight binding; double strand, one strand shown; scale: fold enrichment (6-mer frequency, TF over GST control).
For the sequence GAATAG, the binding signal stood at 0.978.

GCAAGC yielded a binding signal of 0.914. Next, CGCTTA: 1.24; CGCGCC: 0.985.

In the case of GGTCAC, the binding signal is 0.95. The sequence CGGACC had a binding signal of 0.764.

In the case of GGCCTG, the binding signal came out at 0.867. Take GTTTAG: the binding signal was found to be 0.847.

For the sequence ATATCA, the binding signal turned out to be 1.13. As for GCACAC, the binding signal was 0.927.

In the case of CTGGCG, the binding signal was determined as 0.867. Under TCCGGG stands 1.4; under GCGATA, 1.03; under TTAGGA, 0.909. Turning to CGAAGG, the binding signal came out at 0.894. The sequence CGCGAT displayed a binding signal of 1.09. GCTAGA yielded a binding signal of 1. Under TCGGCT stands 0.909; under GAAGTC, 1.51; under ATTCAA, 1.31.

Consider CGCGCT, for which the binding signal is 1.1. In turn, GTAACC showed a binding signal of 1.01. For the sequence TGGCGC, the binding signal amounted to 0.943. CGCCGG displayed a binding signal of 0.985. Next, TCTGAG: 0.938.

Regarding CGTACG, the binding signal stood at 0.937. With TAATCA, the binding signal was 1.07. Next, TCACCA: 1.21; GGTTGT: 0.82; TAAGGA: 0.978.

Sequence TTGAGC registered a binding signal of 0.954.

The sequence CTAGGG came in with a binding signal of 0.881. Under CGCTGG stands 0.968; under GCGGCT, 0.919. The sequence AAGCTA returned a binding signal of 1.04. Next, GGCGTT: 1.03; CAGAAC: 0.918; ACGTTG: 1.08.
